Experimental data published in US4762881 (dated 1988).
Strings that start with PEPTIDE1 are HELM notation: dots part the residues, brackets hold end groups and non-standard residues.

Assay: general procedure: Boc solid-phase peptide synthesis; oxime resin (4-BMA precursor); BOC-amino acid symmetric anhydrides formed with diisopropylcarbodiimide
Conditions: whole synthesis

## PEPTIDE1{L.K.[Bpa].K.K.L.L.K.L.L.K.K.L.L.K.L.G}$$$$V2.0
overall, based on the loading of the first amino acid on the resin
  isolated yield: 19%

## Boc-L-Tyrosyl(t-Butylether)-L-Prolyl-L-Phenylalanyl-p-Benzoyl-L-phenylalanine Amide
  difficulty met: the deletion dipeptide BOC-Tyr(t-Bu)-Bpa-NH2
